Laboratory results published in doi:10.1101/2020.09.30.320457.
These are yes or no findings as the source states them, for the method shown. Binding calls can cover weak binding; strength is not graded here.

Molecular target: HSV-1 procapsid scaffold (scaffold protein pUL26.5) (herpes simplex virus type 1 (HSV-1))
Assay: cryo-EM structure

B1: HSV-1 portal protein pUL6 (dodecameric portal ring) (protein, UniProt P10190 8-676)
chain: APTTRARGDTEALCSPEDGWVKVHPSPGTMLFREILHGQLGYTEGQGVYNVVRSSEATTRQLQAAIFHALLNATTYRDLEADWLGHVAARGLQPQRLVRRYRNAREADIAGVAERVFDTWRNTLRTTLLDFAHGLVACFAPGGPSGPSSFPKYIDWLTCLGLVPILRKRQEGGVTQGLRAFLKQHPLTRQLATVAEAAERAGPGFFELALAFDSTRVADYDRVYIYYNHRRGDWLVRDPISGQRGECLVLWPPLWTGDRLVFDSPVQRLFPEIVACHSLREHAHVCRLRNTASVKVLLGRKSDSERGVAGAARVVNKVLGEDDETKAGSAASRLVRLIINMKGMRHVGDINDTVRSYLDEAGGHLIDAPAVDGTLPGFGKGGNSRGSAGQDQGGRAPQLRQAFRTAVVNNINGVLEGYINNLFGTIERLRETNAGLATQLQERDRELRRATAGALERQQRAADLAAESVTGGCGSRPAGADLLRADYDIIDVSKSMDDDTYVANSFQHPYIPSYAQDLERLSRLWEHELVRCFKILCHRNNQGQETSISYSSGAIAAFVAPYFESVLRAPRVGAPITGSDVILGEEELWDAVFKKTRLQTYLTDIAALFVADVQHAALPPPPSPVGADFRPGASPRGRSRSRSPGRTARGAPDQGGGIGHRDGRRDGRR
For B1, the binding was “binds”.
